Measurements taken from patent publication US20130131018A1, “SUBSTITUTED ISOQUINOLINES AND THEIR USE AS TUBULIN POLYMERIZATION INHIBITORS” (Exonhit S.A., priority 2010, published 2013).
Like-named read-outs stand apart in the source and are kept apart here.

How the values were obtained:
Assay type in all cases: cell-based
K562 cell line = assay: MTT assay: cytotoxicity against the K562 cell line; settings: Homo sapiens, K562 cells, 72 h, growth inhibition
Protocol: Assessment of Cell Viability via MTT Assay: Cytotoxicity of compounds against the K562 cell line was assessed using the [3-(4,5-dimethylthiazol-2-yl)-2,5-diphenyl tetrazolium bromide] (MTT) assay. Fifteen thousand tumor cells were seeded into wells of flat-bottomed 96-well plates. An amount of 2 μL of a dilution series of each compound dissolved in DMSO was added to 198 μL of appropriate growth medium at three replicates per concentration and the plates were incubated in a 5% CO2 incubator at 37° C. After 72 h, the number of metabolically active cells was determined by MTT assay. Absorbance of each well was measured at 550 nm on a Tecan Sunrise reader. Dose-response curves for growth inhibition were generated as a percentage of untreated control. IC50 was determined by nonlinear regression (Prism, Graph Pad Software, Inc.).

HUVEC = assay: Pre-established vessels disruption (capillary tubes on Matrigel); settings: Homo sapiens, HUVEC tubes formed 5 hours, then compounds overnight
Protocol: To explore the effect of the compounds on pre-established vasculature, twenty thousand cells (HUVEC) were seeded and incubated over Matrigel for 5 hours to allow the capillary tubes to form. Then, compounds were added and incubated overnight. The disappearance of existing vasculature was monitored with fluorescent microscopy.

[1] = tested on: Endothelial cells (HUVEC); assay: Neovessels formation inhibition (capillary tube formation on Matrigel); settings: Homo sapiens
Protocol: The capability of compounds to inhibit the formation of capillaries was evaluated in vitro. Twenty thousand Endothelial cells (HUVEC) were placed on a Matrigel matrix and allowed to form capillary tubes in the presence or absence of the compounds overnight. The cells were stained with calcein AM, and the effect of the compounds on capillary tube formation was assessed using an inverted fluorescent microscope (Nikon). The reference compound used in this assay AVE-8063 is 3-amino-deoxycombretastatin A-4.

With `COc1cc2c(c(OC)c1OC)-c1ccc(OC)c(=O)cc1[C@@H](NC(C)=O)CC2` [Colchicine, reference compound] the IC50 (K562 cell line) was 8.52 nM, the IC50 (HUVEC; read-out: Pre-established Vessels Disruption Number of Branch Junctions IC50) was 4.93 nM and the IC50 (HUVEC; read-out: Pre-established Vessels Disruption Total Tubule Length IC50) was 12.7 nM. It also gave an IC50 ([1]; read-out: Neovessels Formation Inhibition Number of Branch Junctions IC50 (nM)) of 15.5 nM and an IC50 ([1]; read-out: Neovessels Formation Inhibition Total Tubule Length IC50 (nM)) of 22.1 nM.
